Assay results reported in publication PMC8138767, “Intrinsically disordered substrates dictate SPOP subnuclear localization and ubiquitination activity” (The Journal of Biological Chemistry, 2021).
Results are given in words; binding and its absence hold for the method and conditions named. Some binding calls cover weakened binding; strength is not graded here.

What was measured:
[1] = molecular target: SPOP-MATH (human SPOP residues 28-166) (human) (UniProt O43791); test: NMR titration; Pdx1 peptides added 4:1 to 0.1-0.2 mM 15N-SPOP-MATH, alone or both together; 1H,15N HSQC; 50 mM sodium phosphate pH 6.5, 50 mM NaCl, 5 mM DTT; both purified
[2] = molecular target: SPOP-MATH (human SPOP residues 28-166) (human) (UniProt O43791); test: NMR titration; Pdx1 peptides added to 0.1-0.2 mM ^15N–SPOP–MATH at 4:1 peptide:SPOP; ^1H, ^15N HSQC; 50 mM sodium phosphate pH 6.5, 50 mM NaCl, 5 mM DTT; both purified

GVAEPEQDCAVTSGEELLALPP (N-terminal acetyl (Ac-)) [Pdx1-SBM1 peptide (used for NMR)]
binding [1]: binds

LSASPQPSSVAPRRPQEPR (N-terminal acetyl (Ac-)) [Pdx1-SBM2 peptide (human Pdx1 residues 265-283)]
binding [1]: binds

GVAEPEQDCAVTSGEELLALPP (N-terminal acetyl (Ac-)) [Pdx1–SBM1 peptide]
binding [2]: binds
